# Data as given in PubChem BioAssay AID743121 (NCATS, 2013).
# Purpose: 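Knock-downs that sensitise breast cancer cells to camptothecin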 (primary screen)
# Cell system: MDA-MB-231 cells, a human breast cancer line
# Reagent: single siRNA against human genes, 20 nM siRNA (0.8 pmol per well)
# Timing: 120 h (drug added 48 h after transfection, read 72 h later)
# Challenge: camptothecin 20 nM (about EC30) for 72 h; vehicle 0.1% DMSO in parallel plates
# Read-out: 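CellTiter-Glo ATP signal, scaled to control siRNA as percent viability; sensitisation given as log2 of untreated divided by camptothecin-treated viability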
# Scale: log2 vehicle/camptothecin viability: higher = stronger sensitisation to camptothecin; viability with camptothecin and viability without drug: higher = more viable cells
# Hit rule: 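Each gene scored by redundant siRNA activity (RSA) over its individual siRNA ratios; a gene is called active at p < 0.001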
# In all, the deposit lists about 26,000 reagents; below is a random part of them. 167 of them (0.63%) were called active. 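Calls are per gene from RSA p-values that are not deposited; an individual active-marked siRNA can sensitise only weakly.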 Unmarked entries are inactive. Reagents against one gene are numbered here.
gene,reagent,log2 vehicle/camptothecin viability,viability with camptothecin (% of control),viability without drug (% of control)
HJURP (GeneID 55355),1,0.336,64.4,81.4
HJURP (GeneID 55355),2,-0.215,116,99.7
HJURP (GeneID 55355),3,-0.12,65.8,60.6
HJURP (GeneID 55355),4,-0.518,78.9,55.1
NLK (GeneID 51701),1,-0.0915,79.6,74.7
NLK (GeneID 51701),2,-0.262,60.5,50.5
NLK (GeneID 51701),3,-0.0242,72.1,70.9
NLK (GeneID 51701),4,0.136,24.3,26.7
ARSJ (GeneID 79642),1,-0.366,90.7,70.4
ARSJ (GeneID 79642),2,-0.747,106,62.9
ARSJ (GeneID 79642),3,0.359,69.9,89.6
JADE3 (GeneID 9767),1,-0.0321,39.5,38.7
JADE3 (GeneID 9767),2,-0.15,44.2,39.9
JADE3 (GeneID 9767),3,-0.166,101,90.3
JADE3 (GeneID 9767),4,-0.403,106,80.3
DNAJC13 (GeneID 23317),1,-0.199,78,68
DNAJC13 (GeneID 23317),2,-0.18,94.6,83.5
DNAJC13 (GeneID 23317),3,-0.28,92.2,75.9
DNAJC13 (GeneID 23317),4,-0.0128,70.8,70.1

Quoted from the listing (3 entries):
gene,reagent,log2 vehicle/camptothecin viability,viability with camptothecin (% of control),viability without drug (% of control)
DNAJC13 (GeneID 23317),2,-0.18,94.6,83.5
DNAJC13 (GeneID 23317),3,-0.28,92.2,75.9
DNAJC13 (GeneID 23317),4,-0.0128,70.8,70.1

Additional entries follow:
gene,reagent,log2 vehicle/camptothecin viability,viability with camptothecin (% of control),viability without drug (% of control)
BCAP29 (GeneID 55973),1,-0.314,26.8,21.5
BCAP29 (GeneID 55973),2,-0.0104,95.5,94.8
BCAP29 (GeneID 55973),3,0.167,69.6,78.1
USP32P2 (GeneID 220594),1,-0.381,65.9,50.6
USP32P2 (GeneID 220594),2,-0.0844,92.8,87.6
USP32P2 (GeneID 220594),3,0.0889,77.4,82.4
USP32P2 (GeneID 220594),4,-0.679,95.4,59.6
GRIK5 (GeneID 2901),1,0.0142,58.3,58.9
GRIK5 (GeneID 2901),2,-0.337,48.8,38.6
GRIK5 (GeneID 2901),3,0.00236,89.4,89.5
GRIK5 (GeneID 2901),4,-0.417,100,75.1
MAPK6 (GeneID 5597),1,-0.374,53.5,41.3
MAPK6 (GeneID 5597),2,0.244,81.6,96.7
MAPK6 (GeneID 5597),3,-0.182,56.1,49.5
MAPK6 (GeneID 5597),4,-0.604,88.1,57.9
FOXO1 (GeneID 2308),1,0.0798,84.3,89.1
FOXO1 (GeneID 2308),2,-0.0329,118,116
FOXO1 (GeneID 2308),3,-0.419,80.7,60.4
FOXO1 (GeneID 2308),4,0.0247,109,110
TXNDC5 (GeneID 81567),1,-0.335,88.6,70.2
TXNDC5 (GeneID 81567),2,-0.643,57.9,37.1
TXNDC5 (GeneID 81567),3,-0.23,117,99.3
TXNDC5 (GeneID 81567),4,-0.174,103,91
MIB1 (GeneID 57534),1,-0.304,94,76.1
MIB1 (GeneID 57534),2,0.137,48.5,53.4
MIB1 (GeneID 57534),3,-0.234,129,110
MIB1 (GeneID 57534),4,0.0976,37.9,40.6
